{"source": "PubChem BioAssay AID1259254 (NCATS, 2017)", "screen": "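Genome-wide screen for genes that prevent DNA re-replication in cancer cells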 (primary screen)", "system": "human HCT116 colorectal cancer cells", "reagents": "single siRNA against human genes", "timing": "3 days", "detection": "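Nuclei stained with Hoechst and imaged; cell-cycle phase assigned by DNA content; G2 share scaled per plate, non-targeting siRNA 0%, GMNN siRNA 100%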", "direction": "G2 robust z-score: higher = more G2 cells, more excess DNA replication", "hit rule": "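An siRNA counts as active if its G2 robust z-score lies at least 5 MADs above the screen median; here such calls match roughly 38% of GMNN control or more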", "note": "The deposit covers about 59,000 reagents; below is a random part of them. Of all reagents, about 1,550 (2.6%) were called active. 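G2 share is only a proxy for re-replication; each gene was hit by three separate siRNAs, and active genes were retested.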 Entries without a mark were called inactive. The numbers tell different reagents against one gene apart. Not all columns of the deposit are shown. Reagent sequences are not shown. The record does not give: the amount of reagent."}
{"Gene": "TLCD1 (GeneID 116238)", "siRNA no.": 1, "G2 robust z-score": -0.997}
{"Gene": "TLCD1 (GeneID 116238)", "siRNA no.": 2, "G2 robust z-score": -0.239}
{"Gene": "TLCD1 (GeneID 116238)", "siRNA no.": 3, "G2 robust z-score": -0.215}
{"Gene": "SLC25A4 (GeneID 291)", "siRNA no.": 1, "G2 robust z-score": 3.04}
{"Gene": "SLC25A4 (GeneID 291)", "siRNA no.": 2, "G2 robust z-score": 3.27}
{"Gene": "SLC25A4 (GeneID 291)", "siRNA no.": 3, "G2 robust z-score": 0.761}
{"Gene": "FDXR (GeneID 2232)", "siRNA no.": 1, "G2 robust z-score": -0.571}
{"Gene": "FDXR (GeneID 2232)", "siRNA no.": 2, "G2 robust z-score": -0.34}
{"Gene": "FDXR (GeneID 2232)", "siRNA no.": 3, "G2 robust z-score": 1.13}
{"Gene": "HMGN2P20 (GeneID 646049)", "siRNA no.": 1, "G2 robust z-score": 0.294}
{"Gene": "HMGN2P20 (GeneID 646049)", "siRNA no.": 2, "G2 robust z-score": -1.02}
{"Gene": "HMGN2P20 (GeneID 646049)", "siRNA no.": 3, "G2 robust z-score": -0.0297}
{"Gene": "DNAH2 (GeneID 146754)", "siRNA no.": 1, "G2 robust z-score": -0.356}
{"Gene": "DNAH2 (GeneID 146754)", "siRNA no.": 2, "G2 robust z-score": -0.824}
{"Gene": "DNAH2 (GeneID 146754)", "siRNA no.": 3, "G2 robust z-score": -0.559}
{"Gene": "OR6Y1 (GeneID 391112)", "siRNA no.": 1, "G2 robust z-score": -0.525}
{"Gene": "OR6Y1 (GeneID 391112)", "siRNA no.": 2, "G2 robust z-score": 4.24}
{"Gene": "OR6Y1 (GeneID 391112)", "siRNA no.": 3, "G2 robust z-score": -1.02}

Already shown: 2 of the entries above.
{"Gene": "DNAH2 (GeneID 146754)", "siRNA no.": 2, "G2 robust z-score": -0.824}
{"Gene": "DNAH2 (GeneID 146754)", "siRNA no.": 3, "G2 robust z-score": -0.559}
